The assay has as its target T1, FLAG-FOXP2 (197-408) (human) (UniProt O15409).
T1 sequence: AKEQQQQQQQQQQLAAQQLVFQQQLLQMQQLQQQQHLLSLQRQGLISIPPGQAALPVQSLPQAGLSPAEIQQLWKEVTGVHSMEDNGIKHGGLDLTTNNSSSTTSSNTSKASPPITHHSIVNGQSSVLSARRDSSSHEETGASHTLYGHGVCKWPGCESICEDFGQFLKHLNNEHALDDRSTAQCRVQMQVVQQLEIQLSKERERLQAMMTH
Put plainly: co-IP; anti-FLAG affinity gel in whole cell extracts of HEK293T cells transfected with pHis-FOXP2 and FLAG-FOXA2 fragments, or pCMV-FOXA2 and FLAG-FOXP2 fragments; blot with anti-FOXP2, anti-FOXA2 or anti-FLAG.

The text below walks through data of PMC7947682.

Results are given in words; binding and its absence hold for the method and conditions named. Binding seen in cells or lysates may run through a third protein. Some entries that bind do so weakly or less than the wild type. Where a sequence is shown, tags or fusion partners need not be part of it.

B1: FOXA2 (pCMV-FOXA2) (protein, UniProt Q9Y261-2 1-463)
chain: MHSASSMLGAVKMEGHEPSDWSSYYAEPEGYSSVSNMNAGLGMNGMNTYMSMSAAAMGSGSGNMSAGSMNMSSYVGAGMSPSLAGMSPGAGAMAGMGGSAGAAGVAGMGPHLSPSLSPLGGQAAGAMGGLAPYANMNSMSPMYGQAGLSRARDPKTYRRSYTHAKPPYSYISLITMAIQQSPNKMLTLSEIYQWIMDLFPFYRQNQQRWQNSIRHSLSFNDCFLKVPRSPDKPGKGSFWTLHPDSGNMFENGCYLRRQKRFKCEKQLALKEAAGAAGSGKKAAAGAQASQAQLGEAAGPASETPAGTESPHSSASPCQEHKRGGLGELKGTPAAALSPPEPAPSPGQQQQAAAHLLGPPHHPGLPPEAHLKPEHHYAFNHPFSINNLMSSEQQHHHSHHHHQPHKMDLKAYEQVMHYPGYGSPMPGSLAMGPVTNKTGLDASPLAADTSYYQGVYSRPIMNSS
For the molecule B1, the binding result is given as “binds”.
